Data on 40 sequences can be found in the supplement of paper PMC10338343.

± gives the standard deviation. Only a part is listed here, and it is no random draw. The uncertainty is large for many entries.

This experiment concerns MILI (PIWIL2) piRISC loaded with piRNA #1 (26 nt). The experiment can be described thus: pre-steady-state target cleavage rate (min^-1); MIWI and MILI are mouse PIWI proteins and EfPiwi is from a freshwater sponge; tags in brackets are library labels; higher = faster piRNA-guided slicing of the target. The following applies: guide: piRNA #1 5'p-UGAGGUAGUAGGUUGUAUAGUAUCCA; auxiliary factor: 500 nM mouse GTSF1. The method, boiled down: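 Sequencing of uncleaved targets, normalised to depth and to weakly complementary targets, was the readout of this Cleave-'n-Seq assay. A transcribed, DNA-blocked target RNA library (0.1 nM) was mixed with 1 nM active affinity-purified piRISC carrying one synthetic guide, with or without 500 nM GTSF1 partner protein, in HEPES–potassium acetate buffer at 33 °C for 0–8 or 0–960 min. Three trials were pooled, k3 was capped at 0.0001 min^-1, and a burst-and-steady-state fit gave the pre-steady-state cleavage rate.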
For GGAGUGCAUACUAUACAAGCUACUACCUCA, the “pre-steady-state target cleavage rate” value came to 0.213 ± 0.014.

On to GGAGACGAUACUAUACAAGGAACUACCUCA, for which the “pre-steady-state target cleavage rate” value amounted to 0.00281 ± 0.0034.

On to GGAGACCUAACAAUACAACCUACUACGUCA, for which the “pre-steady-state target cleavage rate” value is 0.023 ± 0.0089.

With GGAGACCUAUGAUUACAAGCUACUACGUCA, the “pre-steady-state target cleavage rate” value came to 0.00819 ± 0.0037.

Consider GGAGACCUAUGAUAUGUACCUAUUACCUCA, for which the “pre-steady-state target cleavage rate” value is 0.000118 ± 0.023.

Turning to GGAGACCUUACUAUACAACGUUCUACCUCA, the “pre-steady-state target cleavage rate” value amounted to 0.00546 ± 0.0015.

For GGAGACGAUACUAUACUACGUACUACCUCA, the “pre-steady-state target cleavage rate” value is 0.0345 ± 0.004.

Regarding GGAGACCUUACUAUACAACCUACUACCAUCA, the “pre-steady-state target cleavage rate” value amounted to 0.162 ± 0.024.

For the sequence GGAGACCUUACUAUAUCAACCUACUACCUCA, the “pre-steady-state target cleavage rate” value stood at 0.0609 ± 0.0086.

Consider GGAGACGAUACAAUACAACGUACUACCUCA, for which the “pre-steady-state target cleavage rate” value worked out at 0.0185 ± 0.0029.

On to GGAGACCUAUGUAUAGAACCUUCUACCUCA, for which the “pre-steady-state target cleavage rate” value stood at 0.00216 ± 0.0027.

As for GGAGUGGACACUAUACAACCUACUACCUCA, the “pre-steady-state target cleavage rate” value was determined as 0.241 ± 0.025.

Take GGAGACCUAUGAUAUGUUGGUACUAACCUCA: the “pre-steady-state target cleavage rate” value came to 0.00011 ± 0.048.

Take GGAGUGGAAACUAUAGAACCUACUACCUCA: the “pre-steady-state target cleavage rate” value came to 0.204 ± 0.014.

As for GGAGACCAUACUAUACAAGCUACUUCCUCA, the “pre-steady-state target cleavage rate” value is 0.193 ± 0.016.

For GGAGUGGAUAGUAUACAACCUUCUACCUCA, the “pre-steady-state target cleavage rate” value turned out to be 0.0115 ± 0.0038.

Turning to GGAGACCAUACUAUACAACCUACUUCCUCA, the “pre-steady-state target cleavage rate” value amounted to 0.114 ± 0.018.

As for GGAGAGGAUAUUAUACAACCUACUACCUCA, the “pre-steady-state target cleavage rate” value was found to be 0.157 ± 0.0082.

Consider GGAGACCUUACUAUACAUCCUACUACCUCA, for which the “pre-steady-state target cleavage rate” value was 0.292 ± 0.024.

With GGAGACCUAUGAUUAGAUCCUACUACCUCA, the “pre-steady-state target cleavage rate” value amounted to 0.000239 ± 0.01.

Take GGAGACCUAUGAUAACAAUCUACUACCUCA: the “pre-steady-state target cleavage rate” value turned out to be 0.00209 ± 0.0034.

In the case of GGAGACCUAUGAUAUGUUGCUAGUAGCUCA, the “pre-steady-state target cleavage rate” value amounted to 0.000262 ± 0.014.

For the sequence GGAGUGGAAACUAUACAAGCUACUACCUCA, the “pre-steady-state target cleavage rate” value came out at 0.257 ± 0.021.

For GGAGAGGAUUCUAUACAUCCUACUACCUCA, the “pre-steady-state target cleavage rate” value came to 0.263 ± 0.013.

On to GGAGUGGAUACUAUAAACCUACUACCUCA, for which the “pre-steady-state target cleavage rate” value was 0.0206 ± 0.0043.

As for GGAGAGGAUUCUAUACAACCUACAACCUCA, the “pre-steady-state target cleavage rate” value amounted to 0.0904 ± 0.012.

As to GGAGACCUAUCUAUACAACCUACUAACCUCA, the “pre-steady-state target cleavage rate” value turned out to be 0.143 ± 0.014.

As to GGAGACCUAUGAUAAGAAGCUACUACCUCA, the “pre-steady-state target cleavage rate” value came out at 0.000163 ± 0.025.

Turning to GGAGACCUAUGAUAUGGACCUACUACCUCA, the “pre-steady-state target cleavage rate” value amounted to 0.000184 ± 0.02.

GGAGACCUAUGAUAUGAAGCUACUACCUCA: the “pre-steady-state target cleavage rate” value is 0.000179 ± 0.016.

For the sequence GGAGACCUAUGAUUACAAGCAACUACCUCA, the “pre-steady-state target cleavage rate” value turned out to be 0.00158 ± 0.0042.

Take GGAGACCUAUGUAAUGAACCUACUACCUCA: the “pre-steady-state target cleavage rate” value is 0.000392 ± 0.0087.

Regarding GGAGAGGAAACUAUUCAACCUACUACCUCA, the “pre-steady-state target cleavage rate” value was found to be 0.172 ± 0.021.

Consider GGAGACCAUACUAUACAACCUAGUACGUCA, for which the “pre-steady-state target cleavage rate” value was determined as 0.0015 ± 0.0065.

For the sequence GGAGAGGAUACUAUACAACCUACUAGGACA, the “pre-steady-state target cleavage rate” value was found to be 0.000996 ± 0.0068.

GGAGACCUAUGAUUAGAACCUUCUACCUCA: the “pre-steady-state target cleavage rate” value is 0.000319 ± 0.012.

Take GGAGACGAUACUAUACAACCUUGAACCUCA: the “pre-steady-state target cleavage rate” value was 0.00157 ± 0.0046.

For the sequence GGAGCGGAUACUAUACAACCUACUACCUCA, the “pre-steady-state target cleavage rate” value was found to be 0.203 ± 0.013.

As to GGAGACCUUUCUAUACAAGCUACUACCUCA, the “pre-steady-state target cleavage rate” value turned out to be 0.159 ± 0.012.

Turning to GGAGACCAUACUAUACAACGAACUACCUCA, the “pre-steady-state target cleavage rate” value worked out at 0.00198 ± 0.0035.
